Laboratory results from patent publication US20050032863A1, “Method of treating or preventing central nervous system disorders with compounds having selectivity for the alpha 3 subunit of the benzodiazepine receptor” (priority 2003, published 2005).
At least one structure is not confirmed: it was looked up by name or label, or the drawing left a doubt.

Test system: extracellular 5-HT, HIAA and dopamine in the striatum of rats
Assay: Microdialysis in the striatum of rats (Example 3)
Assay type: in vivo, rat
Conditions: 30 mg/kg i.p.
Method: The day before the experiment, male rats were anaesthetised with chloral hydrate (3.6%, 1 ml/100 g i.p.) and placed in a stereotaxic frame to implant a microdialysis guide cannula (CMA/12, Carnegie Medicine, Sweden). Scalp was incised in the median anterior-posterior direction between lambda and bregma and a small hole was drilled into the skull. The stereotaxic coordinates were AP=+1.0 mm, L=−3.0 mm from bregma and 1.5 mm from the skull surface for the striatum according to the atlas of Paxinos and Watson, (1986) (1). Dental cement (Sinfony(2)) was used to fix the guide cannula and anchor screws to the cranium. During the surgery rectal temperature was maintained at 37° C. using a heating blanket.
The day before the experiment the microdialysis probe (CMA/12, membrane length 4 mm, Carnegie Medicin, Sweden) was inserted into the striatum through the guide cannula. […] Microvials were stored in a fraction collector (CMA/170) at a temperature of 8° C. until analysed. […]
Dialysates were directly analysed by reverse-phase high-performance liquid chromatography with electrochemical detection (HPLC-EC). […]
Therefore data of each animal were expressed as percentages. Data from dialysates before administering the substances were averaged, and the mean set as 100%; all individual values were calculated accordingly.

**Q.** Which “duration of the increase of 5-HT concentration in the striatum” value does the source give for `O=C1N=C(N2CCCCC2)CN1c1ccc(Cl)cc1` [ELB139, 1-(4-chlorophenyl)-4-piperidinoimidazolin-2-one] here?
**A.** 1 h and 0.667 h
